We go through two substances from article PMC5725425.

No constants are given. Whether binding was seen depends on the method and setting. For part of these data: Binding calls can cover weak binding; strength is not graded here. For part of these data: Where a sequence is shown, tags or fusion partners need not be part of it.

For test [1], the target named is T1, GST-Xyr1 MHR2 (Trichoderma reesei) (UniProt G0RLE8).
T1 sequence: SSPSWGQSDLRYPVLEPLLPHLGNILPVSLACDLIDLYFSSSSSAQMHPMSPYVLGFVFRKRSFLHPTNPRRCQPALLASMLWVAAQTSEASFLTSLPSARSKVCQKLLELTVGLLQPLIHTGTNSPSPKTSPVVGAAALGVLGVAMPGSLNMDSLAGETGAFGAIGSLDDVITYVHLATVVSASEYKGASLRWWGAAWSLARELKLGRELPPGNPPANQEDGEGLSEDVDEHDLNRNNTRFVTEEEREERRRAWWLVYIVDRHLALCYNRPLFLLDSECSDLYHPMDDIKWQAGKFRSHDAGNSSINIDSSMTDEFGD
The experiment in a line: pull-down; GST pull-down: purified 6 x His MAT1-2-1 incubated with glutathione sepharose bead-coupled GST, GST-Xyr1 AD or GST-Xyr1 MHR2, room temperature, half an hour; washed three times with PBST (0.5% Triton X-100, pH 7.4); Western blot with anti-His antibody; both purified.

The target in test [2] is T2, Xyr1 middle homology region MHR2 (aa 314~632), two-hybrid bait in pGBKT7 (Trichoderma reesei) (UniProt G0RLE8).
T2 sequence: T1 sequence
Put plainly: two-hybrid; pairwise test: MAT1-2-1 with different regions of Xyr1 as bait (pGBKT7) in Y2H Gold; serial dilutions spotted on DDO and on QDO with AbA, 30 °C, 3 days.

Test [3] addresses T3, Xyr1 extended middle homology region MHR1 (aa 314~772), two-hybrid bait in pGBKT7 (Trichoderma reesei) (UniProt G0RLE8).
T3 sequence: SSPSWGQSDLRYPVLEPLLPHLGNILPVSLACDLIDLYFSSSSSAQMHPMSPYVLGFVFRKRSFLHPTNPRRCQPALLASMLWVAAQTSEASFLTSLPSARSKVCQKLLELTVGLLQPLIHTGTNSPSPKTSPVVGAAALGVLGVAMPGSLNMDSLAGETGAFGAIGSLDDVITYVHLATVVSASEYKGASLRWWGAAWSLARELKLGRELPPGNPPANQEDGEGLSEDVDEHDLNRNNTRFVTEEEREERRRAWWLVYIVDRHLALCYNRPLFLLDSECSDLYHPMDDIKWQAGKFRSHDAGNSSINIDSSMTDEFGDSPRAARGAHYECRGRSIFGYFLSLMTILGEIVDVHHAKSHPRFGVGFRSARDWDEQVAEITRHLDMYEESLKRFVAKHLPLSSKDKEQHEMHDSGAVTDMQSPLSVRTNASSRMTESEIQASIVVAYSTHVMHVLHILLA
The test is described as above.

With “recombinant 6 x His-MAT1-2-1 (Trichoderma reesei)”, in test [1], the binding entry is on record as “binds”.
For “mating type locus protein MAT1-2-1 (two-hybrid prey from the T. reesei cDNA library) (Trichoderma reesei)”, the binding result is listed as “binds” in test [2] and “no binding” in test [3].
